Results published in the supplement of paper PMC6078165.
The reference is the same well before dosing, and untreated signal decays as well.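 Fibroblast labels name human fibroblasts: mostly primary ones from tissues such as uterus (C12385, HUF), lung (H6013), bone (Hs27A), adrenal (HADF) and skin (WS1), plus mammary HMF and breast cancer-associated Hs343T. The cancer cells are basal-like or mesenchymal-like triple-negative breast cancer lines. The paper calls a changed response a hit when it shifts by more than 3x the replicate standard deviation. The tissue of the other fibroblasts is not given here.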

Tested on: MDAMB468
Experiment: relative JC-1 red fluorescence (viability) vs pre-drug, coculture with fibroblast (fraction); higher = more viable cancer cells
Procedure: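 JC-1 labelled TNBC cells cocultured 1:1 (1,500 cells each) with CellTrace Violet stained primary or stromal fibroblasts in 384-well plates in FluoroBrite medium, treated with one of 42 anticancer drugs at 0.1, 1, 10 or 100 uM. JC-1 red fluorescence (mitochondrial integrity in cancer cells only) was read by plate reader every 8 h for 72 h. Values are normalised to each well's pre-drug value. The stock of one drug was tenfold lower, so its dose labels may be too high.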

COc1cc([C@@H]2c3cc4c(cc3[C@@H](O[C@@H]3O[C@@H]5CO[C@@H](C)O[C@H]5[C@H](O)[C@H]3O)[C@H]3COC(=O)[C@H]23)OCO4)cc(OC)c1O [Etoposide]
relative JC-1 red fluorescence
Conditions	8 h	16 h	24 h	32 h	40 h	48 h	56 h	64 h	72 h
0.1 µM, coculture fibroblast: C12385	0.86924	0.822	0.787	0.753	0.725	0.731	0.703	0.703	0.698
0.1 µM, coculture fibroblast: H6013	0.8591	0.858	0.818	0.8051	0.781	0.794	0.768	0.748	0.703
0.1 µM, coculture fibroblast: H6019	0.835	0.812	0.78836	0.7559	0.7164	0.707	0.667	0.637	0.611
0.1 µM, coculture fibroblast: H6076	0.90704	0.943	0.867	0.854	0.782	0.774	0.743	0.731	0.763
0.1 µM, coculture fibroblast: H6231	0.819	0.95	0.867	0.83	0.779	0.755	0.698	0.664	0.65
0.1 µM, coculture fibroblast: HADF	0.872	0.858	0.795	0.778	0.733	0.728	0.696	0.69	0.651
0.1 µM, coculture fibroblast: HCFa	0.853	0.836	0.784	0.754	0.6943	0.6986	0.6432	0.608	0.553
0.1 µM, coculture fibroblast: HCPF	0.865	0.9342	0.91	0.869	0.823	0.802	0.751	0.732	0.718
0.1 µM, coculture fibroblast: HHSteC	0.885	0.874	0.838	0.799	0.757	0.754	0.699	0.682	0.631
0.1 µM, coculture fibroblast: HMF	0.828	0.883	0.8885	0.843	0.782	0.746	0.698	0.686	0.665
0.1 µM, coculture fibroblast: HPFa	0.9105	0.895	0.865	0.801	0.776	0.777	0.712	0.686	0.605
0.1 µM, coculture fibroblast: HUF	0.8953	0.825	0.779	0.736	0.684	0.67	0.633	0.625	0.611
0.1 µM, coculture fibroblast: Hs5	0.919	0.9413	0.929	0.908	0.839	0.808	0.7722	0.7308	0.7524
0.1 µM, coculture fibroblast: Hs27A	0.853	0.8603	0.797	0.802	0.751	0.758	0.723	0.712	0.662
0.1 µM, coculture fibroblast: Hs343T	0.875	0.88	0.951	0.912	0.878	0.855	0.807	0.799	0.779
0.1 µM, coculture fibroblast: WS1	0.849	0.7995	0.764	0.715	0.677	0.66	0.643	0.636	0.632
1 µM, coculture fibroblast: C12385	0.878	0.845	0.839	0.806	0.776	0.773	0.744	0.742	0.747
1 µM, coculture fibroblast: H6013	0.8607	0.8569	0.8213	0.8131	0.79578	0.7975	0.7796	0.772	0.7178
1 µM, coculture fibroblast: H6019	0.836	0.811	0.768	0.705	0.669	0.651	0.601	0.574	0.549
1 µM, coculture fibroblast: H6076	0.891	0.899	0.88	0.872	0.806	0.794	0.767	0.754	0.784
1 µM, coculture fibroblast: H6231	0.839	0.876	0.816	0.811	0.745	0.732	0.69	0.671	0.662
1 µM, coculture fibroblast: HADF	0.856	0.849	0.792	0.78	0.758	0.752	0.72	0.718	0.674
1 µM, coculture fibroblast: HCFa	0.856	0.823	0.775	0.752	0.702	0.703	0.654	0.623	0.55674
1 µM, coculture fibroblast: HCPF	0.866	0.9008	0.842	0.826	0.758	0.719	0.671	0.658	0.656
1 µM, coculture fibroblast: HHSteC	0.888	0.875	0.843	0.818	0.8	0.787	0.738	0.713	0.654
1 µM, coculture fibroblast: HMF	0.85	0.915	0.858	0.843	0.773	0.752	0.717	0.701	0.699
1 µM, coculture fibroblast: HPFa	0.922	0.9059	0.8819	0.834	0.811	0.812	0.756	0.737	0.653
1 µM, coculture fibroblast: HUF	0.883	0.821	0.796	0.745	0.711	0.696	0.661	0.654	0.642
1 µM, coculture fibroblast: Hs5	0.979	0.902	0.866	0.832	0.756	0.719	0.69	0.656	0.677
1 µM, coculture fibroblast: Hs27A	0.8306	0.8527	0.791	0.784	0.737	0.735	0.701	0.692	0.649
1 µM, coculture fibroblast: Hs343T	0.852	0.9105	0.854	0.821	0.747	0.721	0.668	0.65	0.627
1 µM, coculture fibroblast: WS1	0.8472	0.77648	0.74	0.68	0.644	0.62	0.587	0.573	0.563
10 µM, coculture fibroblast: C12385	0.8498	0.815	0.776	0.742	0.696	0.695	0.648	0.626	0.622
10 µM, coculture fibroblast: H6013	0.8658	0.8519	0.78922	0.759	0.727	0.72432	0.68	0.656	0.591
10 µM, coculture fibroblast: H6019	0.837	0.809	0.7688	0.7135	0.661	0.649	0.6	0.568	0.549
10 µM, coculture fibroblast: H6076	0.9327	0.872	0.91	0.8821	0.7981	0.763	0.695	0.657	0.678
10 µM, coculture fibroblast: H6231	0.835	0.9608	0.876	0.837	0.771	0.742	0.686	0.651	0.633
10 µM, coculture fibroblast: HADF	0.888	0.842	0.78	0.751	0.689	0.684	0.642	0.631	0.57
10 µM, coculture fibroblast: HCFa	0.88	0.88	0.854	0.824	0.781	0.793	0.74	0.713	0.669
10 µM, coculture fibroblast: HCPF	0.851	0.927	0.864	0.838	0.77	0.731	0.67	0.659	0.651
10 µM, coculture fibroblast: HHSteC	0.893	0.874	0.826	0.785	0.754	0.755	0.7	0.678	0.617
10 µM, coculture fibroblast: HMF	0.833	0.9708	0.866	0.826	0.754	0.716	0.643	0.617	0.5951
10 µM, coculture fibroblast: HPFa	0.937	0.916	0.876	0.818	0.788	0.788	0.73	0.716	0.634
10 µM, coculture fibroblast: HUF	0.891	0.839	0.789	0.722	0.678	0.669	0.631	0.615	0.59
10 µM, coculture fibroblast: Hs5	0.9903	0.98	0.914	0.888	0.803	0.769	0.734	0.703	0.732
10 µM, coculture fibroblast: Hs27A	0.8742	0.8628	0.7897	0.781	0.726	0.7238	0.693	0.679	0.62
10 µM, coculture fibroblast: Hs343T	0.881	0.963	0.8737	0.835	0.7452	0.7003	0.6361	0.6232	0.599
10 µM, coculture fibroblast: WS1	0.8605	0.783	0.7292	0.6679	0.613	0.584	0.548	0.516	0.502
100 µM, coculture fibroblast: C12385	0.878	0.864	0.832	0.78	0.73	0.711	0.667	0.649	0.631
100 µM, coculture fibroblast: H6013	0.86	0.874	0.83	0.811	0.805	0.806	0.773	0.75	0.685
100 µM, coculture fibroblast: H6019	0.814	0.772	0.727	0.676	0.657	0.658	0.64	0.635	0.638
100 µM, coculture fibroblast: H6076	0.901	0.901	0.852	0.843	0.7429	0.704	0.641	0.621	0.661
100 µM, coculture fibroblast: H6231	0.83	0.878	0.795	0.772	0.698	0.687	0.643	0.624	0.625
100 µM, coculture fibroblast: HADF	0.8527	0.83	0.768	0.752	0.705	0.699	0.656	0.66	0.591
100 µM, coculture fibroblast: HCFa	0.8482	0.8033	0.7444	0.71074	0.674	0.6876	0.6434	0.621	0.562
100 µM, coculture fibroblast: HCPF	0.8521	0.906	0.8485	0.844	0.766	0.736	0.697	0.672	0.658
100 µM, coculture fibroblast: HHSteC	0.884	0.879	0.836	0.796	0.774	0.778	0.719	0.703	0.641
100 µM, coculture fibroblast: HMF	0.869	0.943	0.868	0.841	0.748	0.7126	0.661	0.642	0.636
100 µM, coculture fibroblast: HPFa	0.9196	0.922	0.8938	0.8485	0.811	0.82	0.763	0.736	0.666
100 µM, coculture fibroblast: HUF	0.903	0.849	0.785	0.72	0.668	0.651	0.601	0.587	0.574
100 µM, coculture fibroblast: Hs5	0.944	0.947	0.897	0.859	0.793	0.76	0.727	0.71	0.745
100 µM, coculture fibroblast: Hs27A	0.848	0.858	0.7928	0.814	0.758	0.77	0.745	0.733	0.672
100 µM, coculture fibroblast: Hs343T	0.8884	0.969	0.885	0.84	0.719	0.672	0.591	0.559	0.539
100 µM, coculture fibroblast: WS1	0.827	0.772	0.727	0.661	0.614	0.58	0.551	0.531	0.519
